Data from patent publication US20070043512A1, “Therapeutic and prophylactic compositions and uses therefor” (priority 2003, published 2007).
For at least one compound, name, drawing or mass did not settle the structure.

Tested on: aP2 gene expression
Test: Real-time PCR, aP2 gene expression in NHBE cells
Assay type: cell-based, human
Details: NHBE (HBE) cells, subsequent experiment
Method: When NHBE cells were 80% confluent and between passage 7 and 8, they were washed in PBS (Gibco) and starved for 24 h in Clonetics bronchial epithelial cell basal medium (BEBM) containing 0.1% w/v BSA.
Total RNA was isolated from cells using the RNeasy Total RNA Isolation Kit (Qiagen, Chatswort, Calif.) or Trizol (Invitrogen, CA) as per the manufacturer's instructions.
cDNA was made using Reverse-IT RTase Blend Kit (ABgene, UK) or Avian myeloblastosis virus Reverse Transcriptase (Promega, Madison, Wis.) according to manufacturer's instructions. Oligo-p(dt)15 primer (Roche Molecular Biochemicals) was used at 1 μM in both cDNA preparation methods. Following cDNA synthesis, 1 μl of cDNA template was used for each PCR. […]
After an initial denaturation for 10 min at 95° C., the samples were run for 40 cycles at 95° C. […] At the end of each cycle, the fluorescence was measured in a single step in channel F1. […] The temperature was then raised to 95° C. at a rate of 0.1° C./sec and fluorescence was measured continuously (channel F1) to obtain a melting curve for the PCR products. Each gene was normalized to a housekeeping gene GAPDH before fold change was calculated (using crossing point values) to account for variations between different samples. […]
Using the same RNA samples as were used for the microarray experiments, aP2 gene expression was analysed using real-time PCR. […]

SMILES: CN(CCOc1ccc(CC2SC(=O)NC2=O)cc1)c1ccccn1 (stereo not shown) [rosiglitazone, reference compound]
- Effect on aP2 expression: little or no effect
